Results are given in words; binding and its absence hold for the method and conditions named. Binding calls can cover weak binding; strength is not graded here. For some assays here: Where a sequence is shown, tags or fusion partners need not be part of it.
What was measured:
[1] = biological target: T1, UFD-2 consensus sequence EEYDDVPE (C. elegans); test: peptide or protein array; PEPperPRINT microarrays of UFD-2 7- and 13-aa peptides (overlaps 6 and 12 aa); 6xHis::SUMO::CHN-1 incubated 16 h at 4°C; detected with anti-6xHis DyLight680; His::SUMO alone as control; both purified
T1 sequence (peptide): EEYDDVPE

[2] = biological target: T2, UFD-2 consensus sequence … (C. elegans); test: as above
T2 sequence (peptide): EAKAELEEE

[3] = biological target: T3, UFD-2 (C. elegans) (UniProt Q09349); test: ELISA; competition: CHN-1 on immobilised UFD-2, titrated with increasing concentrations of HSP-1 or DAF-21; CHN-1 signal read; both purified
T3 sequence: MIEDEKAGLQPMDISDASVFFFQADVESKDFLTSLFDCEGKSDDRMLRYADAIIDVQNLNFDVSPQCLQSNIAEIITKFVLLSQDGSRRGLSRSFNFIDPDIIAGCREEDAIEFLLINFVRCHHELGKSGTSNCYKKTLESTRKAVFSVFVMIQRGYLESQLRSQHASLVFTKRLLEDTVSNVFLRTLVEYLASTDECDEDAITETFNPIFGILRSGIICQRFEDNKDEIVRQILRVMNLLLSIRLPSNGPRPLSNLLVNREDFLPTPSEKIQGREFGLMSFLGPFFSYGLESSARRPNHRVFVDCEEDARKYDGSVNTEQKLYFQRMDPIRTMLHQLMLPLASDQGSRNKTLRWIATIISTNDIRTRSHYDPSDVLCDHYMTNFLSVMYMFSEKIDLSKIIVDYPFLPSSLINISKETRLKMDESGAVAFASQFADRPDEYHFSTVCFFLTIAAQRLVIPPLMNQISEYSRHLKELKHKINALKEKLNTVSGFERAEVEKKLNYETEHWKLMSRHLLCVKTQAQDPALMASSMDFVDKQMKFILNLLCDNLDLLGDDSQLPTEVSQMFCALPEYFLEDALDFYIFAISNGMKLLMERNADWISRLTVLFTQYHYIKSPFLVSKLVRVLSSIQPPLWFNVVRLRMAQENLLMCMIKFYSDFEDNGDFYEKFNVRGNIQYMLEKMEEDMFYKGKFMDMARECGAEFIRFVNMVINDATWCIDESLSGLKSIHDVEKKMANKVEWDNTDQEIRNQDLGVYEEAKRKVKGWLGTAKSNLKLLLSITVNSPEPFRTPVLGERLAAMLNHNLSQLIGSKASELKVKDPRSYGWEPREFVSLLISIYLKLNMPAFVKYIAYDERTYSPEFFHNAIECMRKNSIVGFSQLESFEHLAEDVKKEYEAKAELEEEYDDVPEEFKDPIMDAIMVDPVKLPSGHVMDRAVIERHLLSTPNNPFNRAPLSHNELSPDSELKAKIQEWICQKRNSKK

[4] = biological target: T3, UFD-2 (C. elegans); test: ELISA; UFD-2, His-tagged DAF-21 or His-tagged HSP-1 immobilised at 2 μg/ml; increasing CHN-1 concentrations, 1 h at 16°C; detected with anti-CHN-1; both purified
[5] = biological target: T4, 6xHis::UFD-2 (C. elegans) (UniProt Q09349); test: HDX-MS; CHN-1 (3 mg/ml) alone or mixed 1:1 with His-tagged UFD-2 (2 mg/ml), 25°C 30 min; exchange 10 s, 1 min, 5 min, 25 min, 2 h in 10 mM HEPES, 150 mM NaCl, D2O, pH 8.0, room temperature; both purified
T4 sequence: T3 sequence

## 6xHis::SUMO::CHN-1 (C. elegans) (enzyme)
[1]
  binding: binds
[2]
  binding: binds

## CHN-1 (C. elegans) (enzyme)
[3]
  binding: binds
[4]
  binding: binds
[5]
  binding: binds
